Measured values as given in PubChem BioAssay AID652054 (National Center for Advancing Translational Sciences (NCATS), 2013).
Values joined by “and” are separate entries in the source; they are usually repeats but may differ in a detail not shown here. Equal entries are not always repeated. Out of some 360,000 compounds screened, about 9,100 (2.5%) were called active. Inconclusive means that the source gave no clear call. Such entries were picked first, then a sample of the others. Cut-off read from the data, not from the text of the source: active = max response below about -50%; inconclusive = no clear call, values can overlap the other calls; inactive = above that.

The chains behind the UniProt entries cited, without tags or fusion partners.
UniProt P35462, whole entry, looked up: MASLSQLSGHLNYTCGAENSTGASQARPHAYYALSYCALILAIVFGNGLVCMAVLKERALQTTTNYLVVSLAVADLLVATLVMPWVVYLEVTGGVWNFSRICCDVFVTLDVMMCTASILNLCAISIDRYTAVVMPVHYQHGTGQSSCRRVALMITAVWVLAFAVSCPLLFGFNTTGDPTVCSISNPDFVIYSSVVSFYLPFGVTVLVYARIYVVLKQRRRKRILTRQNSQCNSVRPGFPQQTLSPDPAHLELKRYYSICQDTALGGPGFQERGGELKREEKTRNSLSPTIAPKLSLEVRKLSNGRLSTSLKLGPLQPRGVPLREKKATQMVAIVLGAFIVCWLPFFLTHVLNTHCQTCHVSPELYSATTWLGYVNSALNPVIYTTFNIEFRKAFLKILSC

Biological target: D(3) dopamine receptor (Homo sapiens) (UniProt P35462)
Assay: qHTS of D3 Dopamine Receptor Antagonist: qHTS
Settings: D3R cells, DiscoveRx beta-arrestin luminescence, antagonist mode; hits give low values
Outline: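 Cells expressing the human receptor were seeded at 1500 cells/well, incubated overnight at 37 degrees C in 5% CO2, then exposed to library compounds with dopamine controls for 90 minutes at 37 degrees C before luminescent detection.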
% is set by controls: 0 for no effect and ±100 for the full control effect.

Max response, negative = inhibition, inactive:
Oc1[nH]c2ccccc2c1N=NC(=S)NCCc1ccccc1 -23.7%
COC(=O)C1=C(N)Oc2cc(N(C)C)ccc2C1c1ccccc1OC (stereo not given) 0.785%
COc1cccc(S(=O)(=O)Nc2ccc(C(=O)Nc3ccncc3)cc2)c1 21.5%
Cc1ccc(C)c(NC(=S)/C(=C(\[O-])c2ccc(Cl)s2)[n+]2ccccc2)c1 -16.1%
CCC(c1nnnn1C1CCCCC1)N(Cc1ccco1)Cc1cc2ccc(OC)cc2[nH]c1=O (stereo not given) -2.56%
Cc1[nH]c2ccc(F)cc2c1CCN(Cc1cccnc1)C(=S)Nc1cccc(F)c1 -4.44%
O=c1oc(-c2cccs2)nc2ccc(Br)cc12 -16.1%
CC(=O)c1cccc(Nc2nc(-c3sc(C)nc3C)cs2)c1 38%
Cc1nn(Cc2c(Cl)cccc2Cl)c(C)c1NC(=O)CCCn1nc([N+](=O)[O-])c(Cl)c1C -3.25%
Cc1cc(C(=O)COC(=O)c2ccccc2Br)c(C)n1CC1CCCO1 (stereo not given) -6.07%
CCCn1c(C(C)Nc2nc(C)cs2)nc2cc(Cl)c(Cl)cc21 (stereo not given) 5.04%
COc1cc(C(=O)NNC(=O)CSc2nnc3ccccn23)cc(OC)c1OC -3.28%
CCN(CC)C(=O)CSC1=C(C#N)C(c2ccco2)C(C(=O)OCCOC)=C(C)N1 (stereo not given) 14.8% and -4.42%
COCCNC(=O)C1(C)CCCN(Cc2ccc(OCc3ccccc3)cc2)C1 (stereo not given) 0%
COc1ccc(NS(=O)(=O)c2ccc3oc(SC4CCOC4=O)nc3c2)cc1 (stereo not given) -17.8%
COc1ccc(CNC(=O)CN(Cc2ccc(Cl)cc2)S(=O)(=O)c2ccccc2)cc1 -17.9%

Max response, negative = inhibition, inconclusive:
CC(Sc1ccc(S(=O)(=O)N2CCOCC2)cn1)c1ccccc1Cl (stereo not given) -30.7%
CCOC(=O)c1cnc(SCC(=O)c2ccc(Cl)cc2)nc1N -39.2%
COc1ccc2c(c1)CCC1=C2NC(=S)NC1c1ccc(N(C)C)cc1 (stereo not given) -33%
O=C(O)COC(=O)C1C(c2ccccc2)C(C(=O)O)C1c1ccccc1 (stereo not given) -33.1%
CC1=C(C(=O)N(C)C)CC(CC(=O)NC(c2ccccc2)c2ccccc2)C(=O)N1Cc1ccc(C(C)(C)C)cc1 (stereo not given) -30.8%
COc1ccc(CNC(=O)C2(C)Cc3c(-c4ccccc4)ccnc3O2)cc1OC (stereo not given) -44.7%
Cc1cc2cc(C(c3nnnn3Cc3ccco3)N3CCc4ccccc43)c(=O)[nH]c2cc1C (stereo not given) -32.3%
O=C(NCC(c1ccco1)N1CCCCC1)c1ccc(COc2ccc(Cl)cc2)cc1 (stereo not given) -35.6%
Cc1cc(=O)[nH]c(Nc2cccc(C(F)(F)F)c2)n1 -44.6%
O=C(O)CCCN1C(=O)/C(=C\C(Cl)=C\c2ccccc2)SC1=S -45.8%
COc1ccccc1NS(=O)(=O)c1cc(C(=O)N2CC(C)CC(C)C2)ccc1C (stereo not given) -31.2%
COc1ccc(Nc2nc(C)cc(C)c2C#N)cc1 -41.9%
CC(C)Oc1ccc(F)cc1-c1cc(C(=O)Nc2ccc(C(C)(C)C)cc2)[nH]n1 -47.8%
Cc1cc2nc3ccc(N(C)C)cc3nc2cc1N -44.5%
CC(C)C(=O)Nc1cccc(NC(=S)NC(=O)c2ccc([N+](=O)[O-])cc2)c1 -33.2%
O=S(=O)(c1ccccc1)N1CC=C(c2ccccc2)CC1 -36.5%
COc1ccc(N2CCN(C(=O)COC(=O)CNC(=O)c3ccccc3)CC2)cc1 -42.4%
COc1cccc(C(=O)Nc2ccc(N3CCN(Cc4ccccc4)CC3)cc2)c1 -35.4%
CC(C)(C)OC(=O)C[C@H]1C/C=C\C[C@H](CC(=O)NCCO)C(=O)NC[C@@H](c2ccccc2)OC1=O -48.7%
CC(C)CN1CCC(C(=O)NC(c2ccc(F)cc2)c2ccc3ccccc3n2)CC1 (stereo not given) -43.2%
CC(C)(C)c1ccc(S(=O)(=O)NC(=O)C2(C)CCN2C(=O)Cc2ccccc2Cl)cc1 (stereo not given) -32.3%
CCN(CC(=O)N1CCN(Cc2ccccc2)CC1)S(=O)(=O)c1ccccc1 -45.7%
COc1cc(O)c2c(=O)c3c(O[C@H]4O[C@@H](CO)[C@H](O)[C@@H](O)[C@@H]4O)ccc(O)c3oc2c1 -30%
Fc1ccc(NC(=S)N2CCN(c3cccc(C(F)(F)F)c3)CC2)cc1 -39.6%
Cn1c(=O)cc(OCCCC(=O)NCCN2CCN(c3ccccc3F)CC2)c2ccccc21 -38.2%
CCSc1nc2ccccc2n1Cc1ccccc1F -34.7%
Cc1cc(Br)cc(C)c1OCCCCN(C)C -40.9%
O=C(Nc1ccnn1C1CCN(Cc2ccc(CO)o2)CC1)c1ccc2c(c1)OCO2 -31.1%
COCCNC(=O)C(OC(=O)CC1Sc2ccccc2NC1=O)c1ccccc1 (stereo not given) -30.5%
COc1cc(/C=C2/C(=O)ON=C2C)ccc1OCc1ccccc1F -35.1%
CCCN(C(=O)c1cnccn1)c1c(N)n(Cc2ccccc2)c(=O)[nH]c1=O -44%
Cc1cc(C)nc(Sc2ncnc(N)c2[N+](=O)[O-])n1 -43%
COc1cc(OC)c(C(=O)C=Cc2ccc(OC)c(OC)c2)c(OC)c1 -39.3%
CC(CN1CCCCC1)OC(=O)c1cc2ccccc2o1 (stereo not given) -38.1%
CCN1C(=NCc2cc(OC)c(OC)c(OC)c2)N[C@@H](c2ccccc2)C(C(=O)OC)=C1C -30.5%
CN1/C(=C/C(=S)NC(=O)C2(C)CC2(Cl)Cl)C(C)(C)c2ccccc21 (stereo not given) -34.8%
O=C(O)c1ccc(Cl)c(NC(=O)C2CCN(S(=O)(=O)c3cccs3)CC2)c1 -33.9%
CC(=O)CSc1ccc(S(=O)(=O)N2CCN(C)CC2)cn1 -34.1%
Cc1ccc(Nc2nc(N)nc(CN3CCN(Cc4ccc5c(c4)OCO5)CC3)n2)cc1Cl -40.6%
CC(=NCCc1ccccc1)C1=C(O)COC1=O -33.6%
CC(=O)Nc1ccc(NC(=O)C(C)OC(=O)c2ccccc2C(=O)c2ccc(Cl)c([N+](=O)[O-])c2)cc1 (stereo not given) -49.2%
CCCC(=O)OC1CC(C)N(C(=O)c2ccccc2)c2ccc(C)cc21 (stereo not given) -30.2%
O=C(/C=C/c1ccc(O)c(O)c1)O[C@@H]1C[C@](O)(C(=O)O)C[C@@H](O)[C@H]1O -37.1%
CN(C)CC/C=C1/c2ccccc2Sc2c(O)cc(Cl)cc21 -36.1%
COc1ccc(Oc2nc(C(F)(F)F)nc3ccccc23)cc1 -47%
O=C(Nc1ccccc1OC(F)F)c1ccc(-n2cncn2)c([N+](=O)[O-])c1 -33%
COc1ccc2nc(NCc3ccccc3)[nH]c2c1 -32.2%
CCOc1c(C)cc(-c2ncccc2O)cc1C -34.6%
CCc1ccc(/C=N/NC(=O)c2cc(-c3cccc([N+](=O)[O-])c3)n[nH]2)cc1 -42.4%
O=C(CN1c2ccccc2Sc2ccccc21)NNC(=S)Nc1ccc(Cl)cc1Cl -46%
O=C(Cn1cnc2ccccc2c1=O)NCCC(=O)N1CCN(c2ccccc2)CC1 -30.8%
CCN(CC)CCNC(=O)c1cc(-c2ccco2)nc2ccccc12 -32.6%
C=C(C)c1sc(-c2ccccc2)nc1C -34.5%
CCOc1ccc(C(=O)N2CCN(Cc3ccccc3)CC2)cc1 -31.4%
Fc1ccccc1COc1ccc(Br)cc1CNCc1cccnc1 -46%
O=C(COc1ccccc1Cl)Nc1ccc(C(=O)c2ccc(C(=O)O)cc2)cc1 -41.4%
CCCCC1S/C(=N/N=C/c2ccc(OC)cc2)N(Cc2ccc(OC)cc2)C1=O (stereo not given) -42.1%

2 neighbouring records from above, quoted:
Max response, negative = inhibition, inconclusive:
COc1cccc(C(=O)Nc2ccc(N3CCN(Cc4ccccc4)CC3)cc2)c1 -35.4%
CC(C)(C)OC(=O)C[C@H]1C/C=C\C[C@H](CC(=O)NCCO)C(=O)NC[C@@H](c2ccccc2)OC1=O -48.7%

Next part:

Max response, negative = inhibition, active:
CN1/C(=C/C=C/c2n(C)c3cc([N+](=O)[O-])c([N+](=O)[O-])cc3[n+]2C)C(C)(C)c2ccccc21 -57.2%
Cn1c(C(=O)NCCN2CCOCC2)cc2sccc21 -62.5%
Clc1cccc(CNCCCSc2ncccn2)c1Cl -69.5%
C#CC(=O)N(c1cccc(OC)c1)C(C(=O)NC1CCCC1)c1cccs1 (stereo not given) -63.5%
COc1cc(/C=C2\CC/C(=C\c3cc(OC)c(O)c(OC)c3)C2=O)cc(OC)c1O -73.6%
CC1(c2nc3ccccc3[nH]2)c2ccccc2C(=O)N1Cc1ccccc1 (stereo not given) -55.3%
COc1ccc(C(=O)CCN2CCN(c3ccccc3OC)CC2)cc1 -83.3%
CN(C)CCNC(=O)C12CC3(C)CC(C)(CC(C)(C3)C1)C2 -51.9%
Cc1onc(-c2c(Cl)cccc2Cl)c1C(=O)c1c[nH]c(C(=O)NCCCN2CCOCC2)c1 -53.8%
CCOC(=O)C1CCCN(CC(=O)c2ccc(F)cc2)C1 (stereo not given) -66.2%
CCCCC(=O)NNC(=S)NC(=O)CCC -58.1%
COCc1cc(C)nc(SCC[N+](C)(C)CC(=O)c2ccccc2)c1C#N -54.6%
